Assay results from article PMC3762332.
For at least one entry, the source does not settle the construct or the ends of the probe. For some of these results: Where a protein sequence is shown, tags need not be part of it.

By UniProt entry, the sequences of proteins in these tests, tags left out. Where a name states a change or a piece, a line headed by the entry shows the natural chain unless it says otherwise.
UniProt P43694: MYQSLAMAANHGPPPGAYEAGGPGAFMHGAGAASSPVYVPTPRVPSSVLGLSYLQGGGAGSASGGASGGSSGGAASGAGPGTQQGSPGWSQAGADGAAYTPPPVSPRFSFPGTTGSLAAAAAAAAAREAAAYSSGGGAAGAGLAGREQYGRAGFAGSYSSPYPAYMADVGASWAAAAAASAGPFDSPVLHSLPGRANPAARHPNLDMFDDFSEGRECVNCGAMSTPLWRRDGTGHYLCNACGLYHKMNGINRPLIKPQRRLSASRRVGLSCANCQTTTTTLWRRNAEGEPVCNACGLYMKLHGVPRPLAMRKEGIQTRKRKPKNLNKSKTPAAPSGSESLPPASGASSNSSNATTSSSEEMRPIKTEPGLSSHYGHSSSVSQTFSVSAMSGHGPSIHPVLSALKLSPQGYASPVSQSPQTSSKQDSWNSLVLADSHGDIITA
UniProt Q9BWM5: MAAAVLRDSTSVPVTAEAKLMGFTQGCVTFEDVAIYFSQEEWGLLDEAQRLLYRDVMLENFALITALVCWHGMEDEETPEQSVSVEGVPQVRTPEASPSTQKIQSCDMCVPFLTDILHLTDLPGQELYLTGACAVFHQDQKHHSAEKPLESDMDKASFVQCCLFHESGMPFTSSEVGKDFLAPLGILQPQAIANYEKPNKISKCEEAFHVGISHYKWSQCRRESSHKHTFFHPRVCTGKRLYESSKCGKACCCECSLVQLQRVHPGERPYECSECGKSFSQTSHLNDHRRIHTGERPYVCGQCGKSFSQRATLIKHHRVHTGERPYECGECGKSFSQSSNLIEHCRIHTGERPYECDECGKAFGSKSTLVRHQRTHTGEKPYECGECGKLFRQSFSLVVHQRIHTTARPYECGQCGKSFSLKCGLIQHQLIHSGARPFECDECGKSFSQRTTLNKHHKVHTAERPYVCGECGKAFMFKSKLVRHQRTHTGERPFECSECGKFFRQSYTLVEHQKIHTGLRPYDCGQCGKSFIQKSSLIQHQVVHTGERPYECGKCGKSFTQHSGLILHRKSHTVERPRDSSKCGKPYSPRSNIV
UniProt P23771: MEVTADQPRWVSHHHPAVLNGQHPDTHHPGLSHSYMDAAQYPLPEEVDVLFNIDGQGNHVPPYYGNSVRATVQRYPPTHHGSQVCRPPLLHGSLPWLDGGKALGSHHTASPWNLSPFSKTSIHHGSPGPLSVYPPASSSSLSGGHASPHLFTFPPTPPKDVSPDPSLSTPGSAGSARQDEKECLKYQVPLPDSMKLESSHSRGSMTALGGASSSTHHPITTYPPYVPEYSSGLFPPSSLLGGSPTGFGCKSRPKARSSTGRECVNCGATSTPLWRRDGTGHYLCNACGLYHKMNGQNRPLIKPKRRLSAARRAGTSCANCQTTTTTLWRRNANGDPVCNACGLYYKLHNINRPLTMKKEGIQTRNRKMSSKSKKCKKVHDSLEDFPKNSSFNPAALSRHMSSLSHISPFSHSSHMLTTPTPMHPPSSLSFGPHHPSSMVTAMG
UniProt P20719: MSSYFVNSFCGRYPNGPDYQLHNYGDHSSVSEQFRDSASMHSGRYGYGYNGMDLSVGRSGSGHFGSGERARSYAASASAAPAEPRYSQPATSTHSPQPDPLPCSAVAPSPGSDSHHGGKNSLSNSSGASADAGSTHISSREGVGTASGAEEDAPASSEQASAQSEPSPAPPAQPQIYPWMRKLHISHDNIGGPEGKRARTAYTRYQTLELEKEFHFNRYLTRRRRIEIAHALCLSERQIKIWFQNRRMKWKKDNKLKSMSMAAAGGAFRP
UniProt P19793: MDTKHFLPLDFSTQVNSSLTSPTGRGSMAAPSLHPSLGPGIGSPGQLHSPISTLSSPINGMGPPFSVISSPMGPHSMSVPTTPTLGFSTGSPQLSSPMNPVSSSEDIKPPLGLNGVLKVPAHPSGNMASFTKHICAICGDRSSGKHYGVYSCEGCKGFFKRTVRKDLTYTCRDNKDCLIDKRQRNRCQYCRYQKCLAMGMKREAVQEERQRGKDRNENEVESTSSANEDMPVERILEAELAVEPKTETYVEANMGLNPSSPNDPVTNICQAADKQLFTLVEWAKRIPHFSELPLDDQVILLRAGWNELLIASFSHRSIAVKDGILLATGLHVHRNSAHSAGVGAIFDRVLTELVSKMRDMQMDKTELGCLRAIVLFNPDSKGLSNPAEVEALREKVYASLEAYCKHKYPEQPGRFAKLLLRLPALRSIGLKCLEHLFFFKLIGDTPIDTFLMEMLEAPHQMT
UniProt Q8NC26: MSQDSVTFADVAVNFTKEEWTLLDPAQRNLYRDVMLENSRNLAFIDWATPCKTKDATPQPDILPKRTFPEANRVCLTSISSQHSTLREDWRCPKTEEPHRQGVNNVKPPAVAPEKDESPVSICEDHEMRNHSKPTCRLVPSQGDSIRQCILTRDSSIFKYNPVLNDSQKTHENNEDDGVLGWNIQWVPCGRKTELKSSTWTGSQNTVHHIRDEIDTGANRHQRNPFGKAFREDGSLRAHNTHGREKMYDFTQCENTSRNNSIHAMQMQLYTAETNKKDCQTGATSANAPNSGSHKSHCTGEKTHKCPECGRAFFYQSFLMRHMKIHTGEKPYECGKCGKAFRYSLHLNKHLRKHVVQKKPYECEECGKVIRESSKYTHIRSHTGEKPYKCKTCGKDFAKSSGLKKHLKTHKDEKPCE
UniProt O00716: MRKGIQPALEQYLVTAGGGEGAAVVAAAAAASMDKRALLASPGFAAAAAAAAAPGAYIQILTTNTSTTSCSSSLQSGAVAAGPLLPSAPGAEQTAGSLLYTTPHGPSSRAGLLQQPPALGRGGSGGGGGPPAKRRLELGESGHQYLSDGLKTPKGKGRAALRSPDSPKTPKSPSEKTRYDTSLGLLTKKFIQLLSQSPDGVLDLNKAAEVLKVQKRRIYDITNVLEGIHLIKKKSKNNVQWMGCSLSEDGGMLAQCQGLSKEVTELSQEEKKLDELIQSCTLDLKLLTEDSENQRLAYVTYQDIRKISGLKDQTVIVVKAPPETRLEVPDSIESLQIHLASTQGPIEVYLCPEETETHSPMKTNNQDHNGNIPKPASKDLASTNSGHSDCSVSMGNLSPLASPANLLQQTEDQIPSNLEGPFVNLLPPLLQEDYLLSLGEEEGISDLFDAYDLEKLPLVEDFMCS
UniProt P37231: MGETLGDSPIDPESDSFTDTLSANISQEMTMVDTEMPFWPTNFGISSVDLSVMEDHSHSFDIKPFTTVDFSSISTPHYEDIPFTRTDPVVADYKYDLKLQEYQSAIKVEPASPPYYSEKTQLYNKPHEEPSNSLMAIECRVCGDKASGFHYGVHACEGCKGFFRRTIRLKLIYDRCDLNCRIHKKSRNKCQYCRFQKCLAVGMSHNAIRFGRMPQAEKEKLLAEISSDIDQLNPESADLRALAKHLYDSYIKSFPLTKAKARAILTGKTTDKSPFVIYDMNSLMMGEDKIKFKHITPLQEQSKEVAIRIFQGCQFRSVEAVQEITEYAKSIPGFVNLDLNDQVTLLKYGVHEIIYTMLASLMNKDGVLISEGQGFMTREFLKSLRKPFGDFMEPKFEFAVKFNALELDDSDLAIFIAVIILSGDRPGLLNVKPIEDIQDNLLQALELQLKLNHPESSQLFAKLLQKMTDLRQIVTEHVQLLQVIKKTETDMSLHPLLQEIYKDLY
UniProt Q9Y2L8: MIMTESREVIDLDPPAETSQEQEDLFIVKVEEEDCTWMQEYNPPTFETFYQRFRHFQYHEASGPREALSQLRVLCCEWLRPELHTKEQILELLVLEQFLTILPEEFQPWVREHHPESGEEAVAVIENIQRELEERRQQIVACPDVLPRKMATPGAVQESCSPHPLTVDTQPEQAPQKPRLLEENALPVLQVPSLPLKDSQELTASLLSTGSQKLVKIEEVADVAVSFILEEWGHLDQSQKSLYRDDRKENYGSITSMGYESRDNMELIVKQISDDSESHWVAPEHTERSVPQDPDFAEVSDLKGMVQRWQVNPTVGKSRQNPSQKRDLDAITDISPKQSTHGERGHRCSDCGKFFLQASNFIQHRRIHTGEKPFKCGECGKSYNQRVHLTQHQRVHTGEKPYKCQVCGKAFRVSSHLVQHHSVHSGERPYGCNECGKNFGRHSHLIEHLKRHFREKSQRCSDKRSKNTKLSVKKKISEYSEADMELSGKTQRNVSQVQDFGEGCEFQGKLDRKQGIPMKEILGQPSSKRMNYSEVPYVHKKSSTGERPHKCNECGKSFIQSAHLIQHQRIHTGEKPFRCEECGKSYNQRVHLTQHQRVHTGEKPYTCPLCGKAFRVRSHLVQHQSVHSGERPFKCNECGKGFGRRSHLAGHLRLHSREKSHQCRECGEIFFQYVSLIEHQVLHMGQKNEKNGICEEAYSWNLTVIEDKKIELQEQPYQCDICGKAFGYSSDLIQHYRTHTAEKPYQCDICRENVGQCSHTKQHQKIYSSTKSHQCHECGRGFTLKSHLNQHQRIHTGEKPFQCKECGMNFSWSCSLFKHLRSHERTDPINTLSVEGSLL
UniProt Q15583: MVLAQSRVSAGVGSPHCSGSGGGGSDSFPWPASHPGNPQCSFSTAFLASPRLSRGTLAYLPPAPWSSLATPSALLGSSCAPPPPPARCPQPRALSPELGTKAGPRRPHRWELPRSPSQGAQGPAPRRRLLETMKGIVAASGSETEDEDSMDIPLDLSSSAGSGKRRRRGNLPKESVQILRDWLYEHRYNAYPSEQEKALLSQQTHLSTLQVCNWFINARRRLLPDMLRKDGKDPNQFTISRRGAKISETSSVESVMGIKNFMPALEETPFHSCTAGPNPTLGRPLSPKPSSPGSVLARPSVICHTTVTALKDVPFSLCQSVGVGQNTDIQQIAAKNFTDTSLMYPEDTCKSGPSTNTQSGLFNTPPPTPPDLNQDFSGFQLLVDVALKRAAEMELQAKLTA
UniProt Q8IW36: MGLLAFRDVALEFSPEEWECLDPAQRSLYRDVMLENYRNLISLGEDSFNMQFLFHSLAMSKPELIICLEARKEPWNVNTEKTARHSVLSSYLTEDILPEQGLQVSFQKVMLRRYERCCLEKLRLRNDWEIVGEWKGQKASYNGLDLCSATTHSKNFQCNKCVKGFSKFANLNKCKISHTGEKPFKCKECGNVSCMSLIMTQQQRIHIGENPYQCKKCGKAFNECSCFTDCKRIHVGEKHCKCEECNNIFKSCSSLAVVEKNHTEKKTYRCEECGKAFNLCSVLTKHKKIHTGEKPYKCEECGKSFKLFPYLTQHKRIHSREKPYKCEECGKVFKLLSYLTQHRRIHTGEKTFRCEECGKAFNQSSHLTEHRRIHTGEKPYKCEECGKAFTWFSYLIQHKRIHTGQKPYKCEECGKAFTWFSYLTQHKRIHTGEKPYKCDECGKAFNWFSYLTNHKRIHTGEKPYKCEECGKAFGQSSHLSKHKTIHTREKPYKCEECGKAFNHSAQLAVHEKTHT

Tests used:
Assay in all cases: protein microarray
Details in all cases: 10-fold cold unmethylated competitor; 5mC at CpG (SssI, both strands); recombinant protein; protein details: GST (N-terminal); label: Cy5
RNF138 (Homo sapiens) = biological target: T1, RNF138 (Homo sapiens) (UniProt Q8WVD3)
T1 sequence (looked up, limits assumed): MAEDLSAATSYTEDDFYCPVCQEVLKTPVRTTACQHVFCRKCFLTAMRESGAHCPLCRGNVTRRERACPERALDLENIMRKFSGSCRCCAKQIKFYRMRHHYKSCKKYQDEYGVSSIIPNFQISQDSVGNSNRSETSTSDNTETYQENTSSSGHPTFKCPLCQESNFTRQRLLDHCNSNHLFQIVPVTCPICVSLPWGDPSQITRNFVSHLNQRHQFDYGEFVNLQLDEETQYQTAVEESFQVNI

GATA4 (Homo sapiens) = GATA4 (Homo sapiens) (UniProt P43694)
BCL3 (Homo sapiens) = biological target: T2, BCL3 (Homo sapiens) (UniProt P20749)
T2 sequence (looked up, limits assumed): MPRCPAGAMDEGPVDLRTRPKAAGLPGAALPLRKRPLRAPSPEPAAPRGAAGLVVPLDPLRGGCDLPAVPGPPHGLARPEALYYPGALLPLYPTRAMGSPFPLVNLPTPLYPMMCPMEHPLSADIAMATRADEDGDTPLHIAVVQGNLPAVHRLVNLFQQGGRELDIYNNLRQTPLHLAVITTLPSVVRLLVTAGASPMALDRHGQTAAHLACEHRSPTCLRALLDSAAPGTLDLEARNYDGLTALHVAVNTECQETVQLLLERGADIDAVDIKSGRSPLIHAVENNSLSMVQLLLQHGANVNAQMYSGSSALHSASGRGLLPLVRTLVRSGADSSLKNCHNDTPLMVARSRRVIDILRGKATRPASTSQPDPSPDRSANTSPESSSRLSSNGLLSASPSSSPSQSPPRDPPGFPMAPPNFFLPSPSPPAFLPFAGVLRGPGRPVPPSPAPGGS

ZNF416 (Homo sapiens) = ZNF416 (Homo sapiens) (UniProt Q9BWM5)
ZCCHC7 (Homo sapiens) = biological target: T3, ZCCHC7 (Homo sapiens) (UniProt Q8N3Z6)
T3 sequence (looked up, limits assumed): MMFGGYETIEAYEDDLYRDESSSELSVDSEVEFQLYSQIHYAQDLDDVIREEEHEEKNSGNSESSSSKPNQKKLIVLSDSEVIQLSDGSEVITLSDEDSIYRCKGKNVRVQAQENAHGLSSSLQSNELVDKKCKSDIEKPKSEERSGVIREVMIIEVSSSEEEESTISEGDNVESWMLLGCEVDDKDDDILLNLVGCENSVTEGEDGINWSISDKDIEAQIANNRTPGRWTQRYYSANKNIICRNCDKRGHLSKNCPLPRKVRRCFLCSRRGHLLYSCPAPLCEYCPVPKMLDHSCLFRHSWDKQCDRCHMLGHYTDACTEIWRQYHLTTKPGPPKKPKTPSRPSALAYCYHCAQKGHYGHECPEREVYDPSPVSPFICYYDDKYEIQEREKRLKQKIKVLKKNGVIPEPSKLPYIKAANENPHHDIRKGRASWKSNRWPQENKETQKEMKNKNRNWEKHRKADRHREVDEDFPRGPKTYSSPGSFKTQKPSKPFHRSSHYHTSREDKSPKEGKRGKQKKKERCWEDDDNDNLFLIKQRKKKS

GATA3 (Homo sapiens) = GATA3 (Homo sapiens) (UniProt P23771)
HOXA5 (Homo sapiens) = HOXA5 (Homo sapiens) (UniProt P20719)
SCAPER (Homo sapiens) = biological target: T4, SCAPER (Homo sapiens) (UniProt Q9BY12)
T4 sequence (looked up, limits assumed): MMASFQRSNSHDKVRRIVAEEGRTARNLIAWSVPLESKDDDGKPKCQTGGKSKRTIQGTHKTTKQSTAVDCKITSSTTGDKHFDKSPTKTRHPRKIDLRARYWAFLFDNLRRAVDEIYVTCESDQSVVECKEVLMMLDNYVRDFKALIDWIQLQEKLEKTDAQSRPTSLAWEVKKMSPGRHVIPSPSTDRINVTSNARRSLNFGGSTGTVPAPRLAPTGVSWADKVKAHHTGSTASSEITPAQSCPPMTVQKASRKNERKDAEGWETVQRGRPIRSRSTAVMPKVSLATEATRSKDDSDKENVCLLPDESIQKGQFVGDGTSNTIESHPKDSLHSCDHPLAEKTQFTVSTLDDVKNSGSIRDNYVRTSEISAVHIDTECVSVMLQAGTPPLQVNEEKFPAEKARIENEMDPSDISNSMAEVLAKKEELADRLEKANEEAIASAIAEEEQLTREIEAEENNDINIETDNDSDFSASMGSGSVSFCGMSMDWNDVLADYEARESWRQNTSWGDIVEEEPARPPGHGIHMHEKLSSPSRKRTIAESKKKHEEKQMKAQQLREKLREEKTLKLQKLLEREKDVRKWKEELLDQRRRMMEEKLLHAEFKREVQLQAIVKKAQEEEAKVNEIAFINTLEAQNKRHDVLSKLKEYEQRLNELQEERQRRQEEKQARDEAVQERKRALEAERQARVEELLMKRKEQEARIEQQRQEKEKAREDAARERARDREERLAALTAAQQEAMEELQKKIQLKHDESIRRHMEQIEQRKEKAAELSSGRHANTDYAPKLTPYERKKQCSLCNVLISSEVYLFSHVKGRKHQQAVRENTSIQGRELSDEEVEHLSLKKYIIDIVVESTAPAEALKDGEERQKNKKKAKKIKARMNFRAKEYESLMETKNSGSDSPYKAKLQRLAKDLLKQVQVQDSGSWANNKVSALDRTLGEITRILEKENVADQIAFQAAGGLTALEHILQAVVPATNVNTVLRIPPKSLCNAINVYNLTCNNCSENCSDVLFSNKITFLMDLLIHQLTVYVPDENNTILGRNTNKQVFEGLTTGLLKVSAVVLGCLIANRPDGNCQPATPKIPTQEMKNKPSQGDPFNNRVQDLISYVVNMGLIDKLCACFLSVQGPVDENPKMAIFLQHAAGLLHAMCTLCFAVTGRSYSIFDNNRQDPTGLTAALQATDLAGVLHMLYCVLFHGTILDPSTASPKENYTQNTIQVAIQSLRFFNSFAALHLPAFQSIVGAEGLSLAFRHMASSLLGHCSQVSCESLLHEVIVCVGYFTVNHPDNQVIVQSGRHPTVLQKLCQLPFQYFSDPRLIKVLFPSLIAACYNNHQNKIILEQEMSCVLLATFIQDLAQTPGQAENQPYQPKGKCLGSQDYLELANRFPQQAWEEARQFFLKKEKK

RXRA (Homo sapiens) = RXRA (Homo sapiens) (UniProt P19793)
ZNF114 (Homo sapiens) = ZNF114 (Homo sapiens) (UniProt Q8NC26)
E2F3 (Homo sapiens) = E2F3 (Homo sapiens) (UniProt O00716)
PPARG (Homo sapiens) = PPARG (Homo sapiens) (UniProt P37231)
ZKSCAN5 (Homo sapiens) = ZKSCAN5 (Homo sapiens) (UniProt Q9Y2L8)
TGIF1 (Homo sapiens) = TGIF1 (Homo sapiens) (UniProt Q15583)
NRF1 (Homo sapiens) = biological target: T5, NRF1 (Homo sapiens) (UniProt Q16656)
T5 sequence (looked up, limits assumed): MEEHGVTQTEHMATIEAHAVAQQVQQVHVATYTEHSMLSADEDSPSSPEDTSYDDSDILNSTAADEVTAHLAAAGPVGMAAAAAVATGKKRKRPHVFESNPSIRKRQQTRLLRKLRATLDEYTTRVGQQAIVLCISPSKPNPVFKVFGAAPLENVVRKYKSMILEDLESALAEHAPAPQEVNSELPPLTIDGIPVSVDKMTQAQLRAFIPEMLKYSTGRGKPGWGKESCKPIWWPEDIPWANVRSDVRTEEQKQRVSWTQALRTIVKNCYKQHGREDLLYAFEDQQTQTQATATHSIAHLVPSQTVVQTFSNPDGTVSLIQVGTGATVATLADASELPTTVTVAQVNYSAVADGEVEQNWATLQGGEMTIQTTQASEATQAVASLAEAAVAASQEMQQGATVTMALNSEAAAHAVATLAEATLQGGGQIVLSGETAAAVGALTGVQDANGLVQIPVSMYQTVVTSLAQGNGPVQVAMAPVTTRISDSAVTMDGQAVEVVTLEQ

ZNF695 (Homo sapiens) = ZNF695 (Homo sapiens) (UniProt Q8IW36)

Measured: binding result

CGCAGCCAAACGCAGCCCCCTATAGTGAGTGCTATTA (double strand) [M86]
binds: RNF138 (Homo sapiens) | GATA4 (Homo sapiens) | BCL3 (Homo sapiens) | ZNF416 (Homo sapiens) | ZCCHC7 (Homo sapiens) | GATA3 (Homo sapiens) | HOXA5 (Homo sapiens) | SCAPER (Homo sapiens) | RXRA (Homo sapiens) | ZNF114 (Homo sapiens) | E2F3 (Homo sapiens) | PPARG (Homo sapiens)

GACGACGAAAAAGACGACGAACCCTATAGTGAGTGCTATTA (double strand) [M269]
binds: ZNF416 (Homo sapiens) | ZKSCAN5 (Homo sapiens) | TGIF1 (Homo sapiens)

AAAACGTACCCAAAACGTACCCTATAGTGAGTGCTATTA (double strand) [M437]
binds: RNF138 (Homo sapiens) | GATA4 (Homo sapiens) | ZNF416 (Homo sapiens) | ZCCHC7 (Homo sapiens) | GATA3 (Homo sapiens) | HOXA5 (Homo sapiens) | SCAPER (Homo sapiens) | ZNF114 (Homo sapiens) | PPARG (Homo sapiens)

AAGCGGACTTTAAGCGGACCCCTATAGTGAGTGCTATTA (double strand) [M442]
binds: RNF138 (Homo sapiens) | GATA4 (Homo sapiens) | ZNF416 (Homo sapiens) | HOXA5 (Homo sapiens) | SCAPER (Homo sapiens) | RXRA (Homo sapiens) | ZNF114 (Homo sapiens) | TGIF1 (Homo sapiens) | E2F3 (Homo sapiens) | NRF1 (Homo sapiens) | PPARG (Homo sapiens)

GCGCTCCAAAGCGCTCCCCCTATAGTGAGTGCTATTA (double strand) [M83]
binds: RNF138 (Homo sapiens) | GATA4 (Homo sapiens) | BCL3 (Homo sapiens) | ZNF416 (Homo sapiens) | GATA3 (Homo sapiens) | HOXA5 (Homo sapiens) | SCAPER (Homo sapiens) | RXRA (Homo sapiens) | ZNF114 (Homo sapiens) | PPARG (Homo sapiens)

GCTGCCTCCGAAAGGTTTGCTGCCTCCGAAAGGCCCTATAGTGAGTGCTATTA (double strand) [M388]
binds: RNF138 (Homo sapiens) | GATA4 (Homo sapiens) | ZNF416 (Homo sapiens) | GATA3 (Homo sapiens) | HOXA5 (Homo sapiens) | SCAPER (Homo sapiens) | RXRA (Homo sapiens) | ZNF114 (Homo sapiens) | ZNF695 (Homo sapiens) | PPARG (Homo sapiens)

CTAGTCGCTAAACTAGTCGCTCCCTATAGTGAGTGCTATTA (double strand) [M402]
binds: ZNF416 (Homo sapiens) | ZKSCAN5 (Homo sapiens) | ZNF114 (Homo sapiens) | TGIF1 (Homo sapiens) | ZNF695 (Homo sapiens) | PPARG (Homo sapiens)

TCGCCGCAAATCGCCGCCCCTATAGTGAGTGCTATTA (double strand) [M293]
binds: ZNF416 (Homo sapiens) | ZKSCAN5 (Homo sapiens) | TGIF1 (Homo sapiens) | E2F3 (Homo sapiens) | NRF1 (Homo sapiens)

AGTTTCGACCCCAGTTTCGACCCCTATAGTGAGTGCTATTA (double strand) [M408]
binds: GATA4 (Homo sapiens) | ZNF416 (Homo sapiens) | ZCCHC7 (Homo sapiens) | HOXA5 (Homo sapiens) | SCAPER (Homo sapiens) | ZKSCAN5 (Homo sapiens) | ZNF114 (Homo sapiens) | TGIF1 (Homo sapiens) | E2F3 (Homo sapiens) | ZNF695 (Homo sapiens)
